In article PMC7819943, “Rice protein-binding microarrays: a tool to detect cis-acting elements near promoter regions in rice”:
The list shows a part of the results.

Molecular target: T1, OsSMF1 (Oryza sativa, UniProt Q6ZLB0 1-436)
T1 sequence: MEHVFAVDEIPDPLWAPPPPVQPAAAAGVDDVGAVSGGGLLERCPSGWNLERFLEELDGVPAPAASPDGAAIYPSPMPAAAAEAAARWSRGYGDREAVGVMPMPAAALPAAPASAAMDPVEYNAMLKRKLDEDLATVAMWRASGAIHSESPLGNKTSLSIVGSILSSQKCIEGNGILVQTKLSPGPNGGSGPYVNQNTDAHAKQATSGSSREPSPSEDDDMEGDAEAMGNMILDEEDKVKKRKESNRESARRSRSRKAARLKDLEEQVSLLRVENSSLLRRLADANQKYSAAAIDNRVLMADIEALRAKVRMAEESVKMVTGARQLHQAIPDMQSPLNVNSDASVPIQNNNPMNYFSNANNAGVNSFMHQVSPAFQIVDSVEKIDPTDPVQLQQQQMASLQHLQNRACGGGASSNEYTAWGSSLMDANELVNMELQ
Assay: protein-binding microarray (RPBM); PBS, 2% BSA, 51.3 ng/ul salmon testes DNA, 50 uM zinc acetate, 200 nM TF, 25 C, 1 h; high values mean tight binding
Settings: protein: recombinant; tags: N-terminal polyhistidine and DsRed monomer fusion (pET32a); chain copies: 2; label: CyDye5-dUTP incorporated in the synthesized complementary strand; 3' TTTTT single-stranded linker to array surface; dsDNA, one strand shown
How it was run: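 Binding signal is reported as fluorescence intensity per feature (arbitrary units) from an Axon 4000B scanner. Incubation used 200 nM of each Ni–NTA-purified, N-terminally polyhistidine- and DsRed-fused transcription factor from E. coli BL21-CodonPlus on a double-stranded custom Agilent array for 1 h at 25 °C, with 50 µM zinc acetate in the buffer, followed by washing.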

Sequence	binding signal
GGCTTTTCTGGCGAAAATGCCACGGCGGCGCTGGACCGGTCGGAGTCACCTAGTGCAG	4750 fluorescence intensity (a.u.)
TTTGGTTATTCTCGTGCATGTCATGCAGAGCTGGAATCTCCGGAGTCACCTAGTGCAG	4670 fluorescence intensity (a.u.)
TGAAATACTTACAAGTCGATCGAACAACACCTGTCATCATCGGAGTCACCTAGTGCAG	4160 fluorescence intensity (a.u.)
TTCTTGTATCTCTATAGGTTGTTAGAGCGGCGACGGCGAGCGGAGTCACCTAGTGCAG	16500 fluorescence intensity (a.u.)
GCAATTCTGGTCCCATAACAGTATGGATGTCTAGTCAGCACGGAGTCACCTAGTGCAG	6530 fluorescence intensity (a.u.)
CTTCTCTTTGTGTTCGCCCGCCTCGGTTAGCAGGTCCTCGCGGAGTCACCTAGTGCAG	3360 fluorescence intensity (a.u.)
TGCTCGATCTCCTCCCCAGGATTAGGGATGAAACTGGTTCCGGAGTCACCTAGTGCAG	4020 fluorescence intensity (a.u.)
TCCCACCAAAATCGTCACATGGACATGCCATGTCACATTTCGGAGTCACCTAGTGCAG	7600 fluorescence intensity (a.u.)
CAGATTAGGACTTCACTACAATCGACGTGCCATAATTCCCCGGAGTCACCTAGTGCAG	3380 fluorescence intensity (a.u.)
CAAGTGCACAACGATTCCAATGTTCGTCAGCTTCGCAGCACGGAGTCACCTAGTGCAG	4620 fluorescence intensity (a.u.)
TAACATATCCTAAAACAATAAATCTGGATAGGAGATTGTTCGGAGTCACCTAGTGCAG	31300 fluorescence intensity (a.u.)
TTTCCTTCCTGATTGTAGTAGCACGTAAGCAGCACTAGGTCGGAGTCACCTAGTGCAG	6490 fluorescence intensity (a.u.)
ATGCTTGTAATTGTCAAGGTGTTAACTGTACGCGGCATATCGGAGTCACCTAGTGCAG	4240 fluorescence intensity (a.u.)
AGAGAGATCCCAATATCACATATTCCACACGCGTACACAACGGAGTCACCTAGTGCAG	30400 fluorescence intensity (a.u.)
AAACAAAATAACTTTATTGTGAGCTGGACCCATGCATTTTCGGAGTCACCTAGTGCAG	3580 fluorescence intensity (a.u.)
CCACATTCCTCCACGTCTCCCGCACCGCCCTTTATTTCCCCGGAGTCACCTAGTGCAG	3190 fluorescence intensity (a.u.)
GATGACGACTGGGACAGAGAGATGACAAGGACGGATGCTGCGGAGTCACCTAGTGCAG	3830 fluorescence intensity (a.u.)
CAATGAATGGATTCACCTGTGAGATGACGTGGTTGTTCCACGGAGTCACCTAGTGCAG	12600 fluorescence intensity (a.u.)
CGTGCCGACGCGTGCCTCGCCAACGTGTCGCAACGCCTCACGGAGTCACCTAGTGCAG	8980 fluorescence intensity (a.u.)
TCCATATAACACGGTTCAATGACGGAATCTCGACTCGTTGCGGAGTCACCTAGTGCAG	3830 fluorescence intensity (a.u.)
GCGTGGTGCTGGTCTCCAAGGATCCCGACAACATCCGCGACGGAGTCACCTAGTGCAG	5380 fluorescence intensity (a.u.)

Sequence	binding signal
AGAATATTGGTCGAAGATGACCCTCGAAATGTACAGCTATCGGAGTCACCTAGTGCAG	3500 fluorescence intensity (a.u.)
TGTGGCTGTAAACGTCACGCGTGCCTAACAATCTGCTGCTCGGAGTCACCTAGTGCAG	4170 fluorescence intensity (a.u.)
TCTAATGCCACACACGCAGTAAGTAGGCCAGGCCCGTCCCCGGAGTCACCTAGTGCAG	3410 fluorescence intensity (a.u.)
GCTCCCCACTTATGCCATGCTTTGCCATGCATGACTCCTTCGGAGTCACCTAGTGCAG	3600 fluorescence intensity (a.u.)
GGTTTTGACCCCGGTTTTGTCCGACGTGGTGGCTGAGTTACGGAGTCACCTAGTGCAG	7080 fluorescence intensity (a.u.)
GCGGCTTTGCTTACGCGACACTACTGGAGTTAGCGAGCACCGGAGTCACCTAGTGCAG	4090 fluorescence intensity (a.u.)
CACTCCTCTGCTGCTCGTCGTCAATGCCATCCTCATCATGCGGAGTCACCTAGTGCAG	3330 fluorescence intensity (a.u.)
GGCACCAGATTCAGCCCCTAATGATGATTCTGATGTCACCCGGAGTCACCTAGTGCAG	6090 fluorescence intensity (a.u.)
ACAATGACTGCGACTTACTTCGTCCTCCCTCGGCGCGATACGGAGTCACCTAGTGCAG	3190 fluorescence intensity (a.u.)
CACATGCCACGCATGCACCACAGTCCACAGTGCTATGTACCGGAGTCACCTAGTGCAG	9730 fluorescence intensity (a.u.)
ACACTTCCCAAAACCCCAAACCGCCCATATCTCTCTCCTCCGGAGTCACCTAGTGCAG	3340 fluorescence intensity (a.u.)
TAATCATATGTTAACGTCATCTCGTTTTGCATAAAATTATCGGAGTCACCTAGTGCAG	4570 fluorescence intensity (a.u.)
ATTCATATGCAGCACGTACACACGCATGCATGAAGAGGTACGGAGTCACCTAGTGCAG	3170 fluorescence intensity (a.u.)
AAGAGTCGGGTTGTGCTGACCCAAAAGCACGACAGCCCATCGGAGTCACCTAGTGCAG	3250 fluorescence intensity (a.u.)
AAATTGATGACTACTCCACTGCCACTTGCAACCTGTGAGCCGGAGTCACCTAGTGCAG	3550 fluorescence intensity (a.u.)
CTCTCGAAGCTGCCCTAGCCTCTCCGCTGCTCCGATCCACCGGAGTCACCTAGTGCAG	24500 fluorescence intensity (a.u.)
CTCCCTTGCCTCGCTGTAGCACACGTGATTTCTCACCGCTCGGAGTCACCTAGTGCAG	3470 fluorescence intensity (a.u.)
CCGGGGCCGGCAGCGGCGGGCGGGCGGGCTCGAGCGGTGGCGGAGTCACCTAGTGCAG	3580 fluorescence intensity (a.u.)
CTGCACTACGCCGCAGACGAACTGACGTGGTCGTATAAAACGGAGTCACCTAGTGCAG	5790 fluorescence intensity (a.u.)
AATGTTTCAGTTACTAATGATGTGGAAACAAAGAAGAGGACGGAGTCACCTAGTGCAG	3210 fluorescence intensity (a.u.)
AAATACAGCCACGGTGCGTGCCTCGTCTCCTTGCATCCGCCGGAGTCACCTAGTGCAG	3340 fluorescence intensity (a.u.)

Quoted from the listing.
GGCACCAGATTCAGCCCCTAATGATGATTCTGATGTCACCCGGAGTCACCTAGTGCAG | binding signal: 6090 fluorescence intensity (a.u.)
AAGAGTCGGGTTGTGCTGACCCAAAAGCACGACAGCCCATCGGAGTCACCTAGTGCAG | binding signal: 3250 fluorescence intensity (a.u.)
